PubChem BioAssay AID1259308 – NCATS | 2017
This is a random part of about 59,000 deposited reagents. About 1,510 of all reagents (2.6%) count as active. 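Calls use total luciferase alone and ignore viability, so some active siRNAs may act by altering cell number.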 Reagents against one gene are numbered here. Reagent sequences are not shown.

- Aim: 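Candidate targets for better recombinant protein yield in mammalian cells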 (primary screen)
- Cell system: human HEK293 embryonic kidney cells stably expressing firefly luciferase (HEK-CMV-Luc2-Hygro)
- Reagent: single siRNA against human genes, 0.8 pmol siRNA per well
- Timing: 72 h
- Measurement: 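Reporter luminescence and viable-cell signal on separate replicate plates, given as percent of non-targeting control and median/MAD z-scores, plus per-cell luciferase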
- Direction: total luciferase, z-score and total luciferase, % of control: higher = more reporter protein produced; luciferase per cell, z-score: higher = more reporter output per viable cell; viable cells, % of control: higher = more viable cells
- Hit rule: 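Active when the median/MAD z-score for overall luciferase is greater than 3; a gene was taken forward for validation with new siRNAs if at least two of its three siRNAs passed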
- Meaning of the calls: active = raised luciferase; inactive = no rise

| Target gene | siRNA no. | total luciferase, z-score | total luciferase, % of control | luciferase per cell, z-score | viable cells, % of control | Outcome |
| --- | --- | --- | --- | --- | --- | --- |
| ADGRG7 (GeneID 84873) | 1 | 1.55 | 113 | 1.28 | 90.1 | inactive |
| ADGRG7 (GeneID 84873) | 2 | 0.918 | 100 | 1.07 | 84.4 | inactive |
| ADGRG7 (GeneID 84873) | 3 | 1.19 | 106 | 0.646 | 99.6 | inactive |
| IL5 (GeneID 3567) | 1 | 0.357 | 89 | 0.822 | 80.1 | inactive |
| IL5 (GeneID 3567) | 2 | -0.389 | 74.1 | -0.149 | 86.2 | inactive |
| IL5 (GeneID 3567) | 3 | -1.71 | 47.8 | 3.13 | 23.5 | inactive |
| EFR3B (GeneID 22979) | 1 | -0.488 | 72.2 | -0.543 | 93.1 | inactive |
| EFR3B (GeneID 22979) | 2 | -0.015 | 81.6 | -0.267 | 97.8 | inactive |
| EFR3B (GeneID 22979) | 3 | -0.376 | 74.4 | -0.22 | 88.1 | inactive |
| MYMK (GeneID 389827) | 1 | 0.636 | 94.5 | -0.856 | 132 | inactive |
| MYMK (GeneID 389827) | 2 | 0.143 | 84.7 | 0.449 | 84.1 | inactive |
| MYMK (GeneID 389827) | 3 | -1.31 | 55.7 | -0.118 | 64.3 | inactive |
| PPP1R10 (GeneID 5514) | 1 | -1.74 | 47.3 | -1.66 | 81.8 | inactive |
| PPP1R10 (GeneID 5514) | 2 | -1.98 | 42.4 | -2.2 | 84.7 | inactive |
| PPP1R10 (GeneID 5514) | 3 | -1.75 | 47.1 | -2.05 | 90.3 | inactive |
| FZR1 (GeneID 51343) | 1 | -0.461 | 72.7 | -0.466 | 91.9 | inactive |
| FZR1 (GeneID 51343) | 2 | -0.747 | 67 | -0.827 | 93.1 | inactive |
| FZR1 (GeneID 51343) | 3 | 0.416 | 90.2 | 0.0637 | 99.1 | inactive |
| HBA1 (GeneID 3039) | 1 | -0.975 | 62.5 | -0.432 | 78.2 | inactive |
| HBA1 (GeneID 3039) | 2 | -0.0984 | 79.9 | -0.119 | 92.2 | inactive |
| HBA1 (GeneID 3039) | 3 | -2.04 | 41.3 | -2.3 | 84.6 | inactive |
| LIMCH1 (GeneID 22998) | 1 | -1.02 | 61.5 | -1.31 | 97 | inactive |
| LIMCH1 (GeneID 22998) | 2 | 1.01 | 102 | 1.17 | 83.7 | inactive |
| LIMCH1 (GeneID 22998) | 3 | -1.27 | 56.6 | -1.79 | 101 | inactive |
| OR51V1 (GeneID 283111) | 1 | -0.0416 | 81.1 | -0.695 | 109 | inactive |
| OR51V1 (GeneID 283111) | 2 | -0.342 | 75.1 | 0.0739 | 82.3 | inactive |
| OR51V1 (GeneID 283111) | 3 | 0.539 | 92.6 | 0.51 | 90.5 | inactive |
| DSTYK (GeneID 25778) | 1 | -0.586 | 70.2 | -0.35 | 86 | inactive |
| DSTYK (GeneID 25778) | 2 | -0.092 | 80.1 | -0.196 | 94.2 | inactive |
| DSTYK (GeneID 25778) | 3 | -0.0428 | 81 | -0.729 | 110 | inactive |
| LRRC58 (GeneID 116064) | 1 | 0.0943 | 83.8 | 1.32 | 66 | inactive |
| LRRC58 (GeneID 116064) | 2 | 0.698 | 95.8 | 0.464 | 94.7 | inactive |
| LRRC58 (GeneID 116064) | 3 | 0.348 | 88.8 | -0.157 | 103 | inactive |
| SULT2B1 (GeneID 6820) | 1 | -0.254 | 76.8 | -0.566 | 99.7 | inactive |
| SULT2B1 (GeneID 6820) | 2 | 0.831 | 98.4 | -0.254 | 118 | inactive |
| SULT2B1 (GeneID 6820) | 3 | -0.173 | 78.4 | -0.569 | 102 | inactive |
| NOC2L (GeneID 26155) | 1 | -0.389 | 74.1 | 0.752 | 68 | inactive |
| NOC2L (GeneID 26155) | 2 | -0.54 | 71.2 | -0.307 | 86.2 | inactive |
| NOC2L (GeneID 26155) | 3 | 0.341 | 88.7 | 0.192 | 94.2 | inactive |
| YIPF4 (GeneID 84272) | 1 | -1.58 | 50.5 | -1.77 | 90 | inactive |
| YIPF4 (GeneID 84272) | 2 | 0.109 | 84.1 | -0.285 | 101 | inactive |
| YIPF4 (GeneID 84272) | 3 | -0.923 | 63.5 | -0.0226 | 71.4 | inactive |
| RSRC2 (GeneID 65117) | 1 | 0.29 | 87.6 | 0.931 | 76.6 | inactive |
| RSRC2 (GeneID 65117) | 2 | -0.104 | 79.8 | -0.434 | 100 | inactive |
| RSRC2 (GeneID 65117) | 3 | 1.56 | 113 | 0.731 | 104 | inactive |

A stretch from the list above:
| Target gene | siRNA no. | total luciferase, z-score | total luciferase, % of control | luciferase per cell, z-score | viable cells, % of control | Outcome |
| --- | --- | --- | --- | --- | --- | --- |
| IL5 (GeneID 3567) | 1 | 0.357 | 89 | 0.822 | 80.1 | inactive |
| IL5 (GeneID 3567) | 2 | -0.389 | 74.1 | -0.149 | 86.2 | inactive |
| IL5 (GeneID 3567) | 3 | -1.71 | 47.8 | 3.13 | 23.5 | inactive |
| EFR3B (GeneID 22979) | 1 | -0.488 | 72.2 | -0.543 | 93.1 | inactive |
| EFR3B (GeneID 22979) | 2 | -0.015 | 81.6 | -0.267 | 97.8 | inactive |
| EFR3B (GeneID 22979) | 3 | -0.376 | 74.4 | -0.22 | 88.1 | inactive |
| MYMK (GeneID 389827) | 1 | 0.636 | 94.5 | -0.856 | 132 | inactive |
| MYMK (GeneID 389827) | 2 | 0.143 | 84.7 | 0.449 | 84.1 | inactive |
| MYMK (GeneID 389827) | 3 | -1.31 | 55.7 | -0.118 | 64.3 | inactive |

Next records follow:
| Target gene | siRNA no. | total luciferase, z-score | total luciferase, % of control | luciferase per cell, z-score | viable cells, % of control | Outcome |
| --- | --- | --- | --- | --- | --- | --- |
| SIGLEC9 (GeneID 27180) | 1 | -1.03 | 61.3 | -0.556 | 79.3 | inactive |
| SIGLEC9 (GeneID 27180) | 2 | -0.531 | 71.3 | -0.202 | 84.1 | inactive |
| SIGLEC9 (GeneID 27180) | 3 | -0.0968 | 80 | 0.874 | 71 | inactive |
| IL1R2 (GeneID 7850) | 1 | -1.21 | 57.8 | -1.35 | 92.2 | inactive |
| IL1R2 (GeneID 7850) | 2 | 1.21 | 106 | 1.82 | 73.4 | inactive |
| IL1R2 (GeneID 7850) | 3 | 0.345 | 88.8 | 0.484 | 87.3 | inactive |
| C3orf70 (GeneID 285382) | 1 | -0.964 | 62.7 | -0.123 | 72.4 | inactive |
| C3orf70 (GeneID 285382) | 2 | -0.0332 | 81.2 | 2.79 | 43.5 | inactive |
| C3orf70 (GeneID 285382) | 3 | -0.116 | 79.6 | 0.0595 | 87.6 | inactive |
| PPP1R2 (GeneID 5504) | 1 | 0.127 | 84.4 | 0.459 | 83.6 | inactive |
| PPP1R2 (GeneID 5504) | 2 | 2.29 | 127 | 2.13 | 81.3 | inactive |
| PPP1R2 (GeneID 5504) | 3 | -1.03 | 61.4 | -1.38 | 98.7 | inactive |
| B2M (GeneID 567) | 1 | -1.41 | 53.8 | 0.581 | 51.6 | inactive |
| B2M (GeneID 567) | 2 | 0.762 | 97 | 1.05 | 82.2 | inactive |
| B2M (GeneID 567) | 3 | -0.126 | 79.4 | 0.13 | 85.7 | inactive |
| HMGN2P16 (GeneID 728234) | 1 | 1.55 | 113 | 1.45 | 86 | inactive |
| HMGN2P16 (GeneID 728234) | 2 | -1.36 | 54.8 | -0.444 | 68.8 | inactive |
| HMGN2P16 (GeneID 728234) | 3 | 0.235 | 86.6 | -0.212 | 102 | inactive |
| GPA33 (GeneID 10223) | 1 | 0.207 | 86 | -0.143 | 99.8 | inactive |
| GPA33 (GeneID 10223) | 2 | 1.9 | 120 | 1.93 | 80.5 | inactive |
| GPA33 (GeneID 10223) | 3 | -1.56 | 50.9 | -1.38 | 81.8 | inactive |
| TRIM74 (GeneID 378108) | 1 | 2.71 | 136 | 1.88 | 92.4 | inactive |
| TRIM74 (GeneID 378108) | 2 | -0.461 | 72.7 | -0.816 | 101 | inactive |
| TRIM74 (GeneID 378108) | 3 | 1.19 | 106 | 0.121 | 114 | inactive |
| YEATS2 (GeneID 55689) | 1 | 0.862 | 99 | 0.51 | 96.7 | inactive |
| YEATS2 (GeneID 55689) | 2 | -0.167 | 78.6 | -0.685 | 105 | inactive |
| YEATS2 (GeneID 55689) | 3 | -0.565 | 70.6 | -1.22 | 109 | inactive |
| PLA2G2D (GeneID 26279) | 1 | -0.843 | 65.1 | -0.174 | 76.2 | inactive |
| PLA2G2D (GeneID 26279) | 2 | 1.41 | 110 | 0.906 | 96.8 | inactive |
| PLA2G2D (GeneID 26279) | 3 | -0.764 | 66.7 | -0.748 | 90.7 | inactive |
